# In publication PMC8384837:
# Numbering of substitutions follows the chain as printed. The list shows a part of the results. For some assays here: At the low end of the ranking the order means little.
# Key:
# Details in all cases: yeast three-hybrid, YBZ-1, SC-Leu-His + 0.5 mM 3-AT, 4 days
# [1] = target: T1, PUM1 PUF domain R2-LLL N899L + Y900L + Q903L (Homo sapiens) (UniProt Q14671)
# T1 sequence: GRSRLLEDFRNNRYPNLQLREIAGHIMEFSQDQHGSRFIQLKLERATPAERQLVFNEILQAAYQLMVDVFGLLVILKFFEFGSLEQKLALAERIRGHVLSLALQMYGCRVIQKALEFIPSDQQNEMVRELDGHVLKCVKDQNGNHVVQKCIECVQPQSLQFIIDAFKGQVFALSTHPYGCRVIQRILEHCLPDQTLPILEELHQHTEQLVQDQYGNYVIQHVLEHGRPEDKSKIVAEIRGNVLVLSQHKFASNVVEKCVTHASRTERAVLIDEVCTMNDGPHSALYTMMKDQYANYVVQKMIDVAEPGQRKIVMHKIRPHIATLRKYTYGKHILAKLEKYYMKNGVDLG
# [2] = target: T2, PUM1 PUF domain R2-LLY N899L + Y900L + Q903Y (Homo sapiens) (UniProt Q14671)
# T2 sequence: T1 sequence with L76Y
# [3] = target: T3, PUM1 PUF domain R2-MWR N899M + Y900W + Q903R (UniProt Q14671)
# T3 sequence: T1 sequence with L72M, L73W, L76R
# [4] = target: T4, PUM1 PUF domain R2-QWR N899Q + Y900W + Q903R (UniProt Q14671)
# T4 sequence: T1 sequence with L72Q, L73W, L76R
# [5] = target: T5, PUM1 PUF domain R2-RKA N899R + Y900K + Q903A (UniProt Q14671)
# T5 sequence: T1 sequence with L72R, L73K, L76A
# [6] = target: T6, PUM1 PUF domain R2-RKG N899R + Y900K + Q903G (UniProt Q14671)
# T6 sequence: T1 sequence with L72R, L73K, L76G
# [7] = target: T7, PUM1 PUF domain R2-RKW N899R + Y900K + Q903W (Homo sapiens) (UniProt Q14671)
# T7 sequence: T1 sequence with L72R, L73K, L76W
# [8] = target: T8, PUM1 PUF domain R2-RRC N899R + Y900R + Q903C (Homo sapiens) (UniProt Q14671)
# T8 sequence: T1 sequence with L72R, L73R, L76C
# [9] = target: T9, PUM1 PUF domain R2-RRM N899R + Y900R + Q903M (UniProt Q14671)
# T9 sequence: T1 sequence with L72R, L73R, L76M
# [10] = target: T10, PUM1 PUF domain R2-RVN N899R + Y900V + Q903N (Homo sapiens) (UniProt Q14671)
# T10 sequence: T1 sequence with L72R, L73V, L76N
# [11] = target: T11, PUM1 PUF domain R2-RVT N899R + Y900V + Q903T (Homo sapiens) (UniProt Q14671)
# T11 sequence: T1 sequence with L72R, L73V, L76T
# [12] = target: T12, PUM1 PUF domain R2-VFQ R6-SWD R7-NPG N899V + Y900F + N1043S + Y1044W + Q1047D + S1079N + N1080P + E1083G (Homo sapiens) (UniProt Q14671)
# T12 sequence: T1 sequence with L72V, L73F, L76Q, N216S, Y217W, Q220D, S252N, N253P, E256G
# [13] = target: T13, PUM1 PUF domain R2-VFQ R3-THE R4-TFR R6-SWD R7-NPG N899V + Y900F + C935T + R936H + Q939E + N971T + H972F + Q975R + N1043S + Y1044W + Q1047D + S1079N + N1080P + E1083G (Homo sapiens) (UniProt Q14671)
# T13 sequence: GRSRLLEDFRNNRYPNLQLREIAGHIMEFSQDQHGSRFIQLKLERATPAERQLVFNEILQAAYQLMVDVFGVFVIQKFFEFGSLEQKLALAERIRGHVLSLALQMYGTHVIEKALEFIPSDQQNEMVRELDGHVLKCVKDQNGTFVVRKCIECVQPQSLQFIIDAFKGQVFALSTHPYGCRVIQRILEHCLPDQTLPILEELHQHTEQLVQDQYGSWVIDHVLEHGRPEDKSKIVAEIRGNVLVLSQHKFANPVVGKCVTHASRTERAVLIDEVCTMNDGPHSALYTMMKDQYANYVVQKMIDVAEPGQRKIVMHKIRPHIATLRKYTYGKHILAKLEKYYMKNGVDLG
# [14] = target: T14, PUM1 PUF domain R4-AGY N971A + H972G + Q975Y (UniProt Q14671)
# T14 sequence: T1 sequence with L72N, L73Y, L76Q, N144A, H145G, Q148Y
# [15] = target: T15, PUM1 PUF domain R4-ALY N971A + H972L + Q975Y (UniProt Q14671)
# T15 sequence: T1 sequence with L72N, L73Y, L76Q, N144A, H145L, Q148Y
# [16] = target: T16, PUM1 PUF domain R4-AQY N971A + H972Q + Q975Y (UniProt Q14671)
# T16 sequence: T1 sequence with L72N, L73Y, L76Q, N144A, H145Q, Q148Y
# [17] = target: T17, PUM1 PUF domain R4-CRS N971C + H972R + Q975S (UniProt Q14671)
# T17 sequence: T1 sequence with L72N, L73Y, L76Q, N144C, H145R, Q148S
# [18] = target: T18, PUM1 PUF domain R4-DFL N971D + H972F + Q975L (UniProt Q14671)
# T18 sequence: T1 sequence with L72N, L73Y, L76Q, N144D, H145F, Q148L
# [19] = target: T19, PUM1 PUF domain R4-LGL N971L + H972G + Q975L (UniProt Q14671)
# T19 sequence: T1 sequence with L72N, L73Y, L76Q, N144L, H145G, Q148L
# [20] = target: T20, PUM1 PUF domain R4-PRC N971P + H972R + Q975C (UniProt Q14671)
# T20 sequence: T1 sequence with L72N, L73Y, L76Q, N144P, H145R, Q148C
sequence,measurement,setting,value
GGCUAGAACUAGUGGAUCCCCCGGCGCCCGGCGGCUCGAGCCCGGGUAAGUGUAAAAAGUCUGCAUGCCGCCGGGCGCCAUGCCUGCAGGUCGACUCUAGAAAACAUG,binding signal (log2 enrichment (interaction score)),[1],-6.31
same,binding signal (log2 enrichment (interaction score)),[2],-1.47
same,binding signal (log2 enrichment (interaction score)),[3],-4.6
same,binding signal (log2 enrichment (interaction score)),[4],-3.98
same,binding signal (log2 enrichment (interaction score)),[5],< -8.09
same,binding signal (log2 enrichment (interaction score)),[6],< -10.2
same,binding signal (log2 enrichment (interaction score)),[7],-5.25
same,binding signal (log2 enrichment (interaction score)),[8],-1.18
same,binding signal (log2 enrichment (interaction score)),[9],< -6.7
same,binding signal (log2 enrichment (interaction score)),[10],-1.66
same,binding signal (log2 enrichment (interaction score)),[11],-5.29
GGCUAGAACUAGUGGAUCCCCCGGCGCCCGGCGGCUCGAGCCCGGGUAAGUUGAAAAAGUCUGCAUGCCGCCGGGCGCCAUGCCUGCAGGUCGACUCUAGAAAACAUG,binding signal (log2 enrichment (interaction score)),[12],-0.79
GGCUAGAACUAGUGGAUCCCCCGGCGCCCGGCGGCUCGAGCCCGGGUAAGUUGACGAAGUCUGCAUGCCGCCGGGCGCCAUGCCUGCAGGUCGACUCUAGAAAACAUG,binding signal (log2 enrichment (interaction score)),[13],3.74
GGCUAGAACUAGUGGAUCCCCCGGCGCCCGGCGGCUCGAGCCCGGGUAAGUGUACAUAGUCUGCAUGCCGCCGGGCGCCAUGCCUGCAGGUCGACUCUAGAAAACAUG,binding signal (log2 enrichment (interaction score)),[14],< -6.73
same,binding signal (log2 enrichment (interaction score)),[15],< -6.6
same,binding signal (log2 enrichment (interaction score)),[16],< -5.01
same,binding signal (log2 enrichment (interaction score)),[17],< -6.7
same,binding signal (log2 enrichment (interaction score)),[18],-5.8
same,binding signal (log2 enrichment (interaction score)),[19],< -8.48
same,binding signal (log2 enrichment (interaction score)),[20],< -7.89

# 2 records picked at random from those above:
sequence,measurement,setting,value
GGCUAGAACUAGUGGAUCCCCCGGCGCCCGGCGGCUCGAGCCCGGGUAAGUUGAAAAAGUCUGCAUGCCGCCGGGCGCCAUGCCUGCAGGUCGACUCUAGAAAACAUG,binding signal (log2 enrichment (interaction score)),[12],-0.79
GGCUAGAACUAGUGGAUCCCCCGGCGCCCGGCGGCUCGAGCCCGGGUAAGUGUAAAAAGUCUGCAUGCCGCCGGGCGCCAUGCCUGCAGGUCGACUCUAGAAAACAUG,binding signal (log2 enrichment (interaction score)),[5],< -8.09
